Experimental data: PubChem BioAssay AID2551 (National Center for Advancing Translational Sciences (NCATS), 2010)
The whole screen tested about 310,000 compounds, of which about 17,000 (5.5%) were called active. The inconclusive results got no clear call from the source; some entries with a clear call stand among them for comparison. Calls follow the shape of the dose curve; as a rule, active = well fitted inhibition curve with a large enough effect; inconclusive = small, poorly fitted or top-dose-only effect, or effect the other way; inactive = no such curve, though single readings can be large or run the other way. A potency beside an inconclusive call is a rough fit, not a confirmed value.

The chains behind the UniProt entries cited, without tags or fusion partners. Where a name states a change or a piece, a line headed by the entry shows the natural chain unless it says otherwise.
UniProt P51450: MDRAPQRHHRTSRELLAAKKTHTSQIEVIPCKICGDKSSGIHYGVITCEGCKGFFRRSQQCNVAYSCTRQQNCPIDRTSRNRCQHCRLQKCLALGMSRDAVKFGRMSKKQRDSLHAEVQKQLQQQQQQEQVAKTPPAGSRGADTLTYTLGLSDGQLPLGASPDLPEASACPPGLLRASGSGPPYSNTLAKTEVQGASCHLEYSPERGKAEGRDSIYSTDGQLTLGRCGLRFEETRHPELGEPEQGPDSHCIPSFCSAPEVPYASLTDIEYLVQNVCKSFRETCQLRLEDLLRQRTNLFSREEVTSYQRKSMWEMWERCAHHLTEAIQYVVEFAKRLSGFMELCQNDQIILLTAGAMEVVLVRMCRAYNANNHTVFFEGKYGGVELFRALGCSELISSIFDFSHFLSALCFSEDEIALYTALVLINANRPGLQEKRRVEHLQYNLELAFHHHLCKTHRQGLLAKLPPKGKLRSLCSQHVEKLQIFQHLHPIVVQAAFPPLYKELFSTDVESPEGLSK

biological target: Nuclear receptor ROR-gamma (Mus musculus) (UniProt P51450); assay: qHTS for inhibitors of ROR gamma transcriptional activity; conditions: Drosophila S2 Gal4-RORgamma UAS-luciferase reporter, 20 h; activity change, negative = inhibition: at 53.6 µM (top of the series); also: nearly all actives have a fitted effect of over 60% in size
Outline: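 Luminescence from a UAS-regulated Photinus luciferase reporter in stably transfected Drosophila Schneider cells is measured; decreased signal marks ROR gamma inhibition. Fusion expression is induced by 700 uM copper sulfate for 20 hr.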
% is scaled to controls: 0 for no effect and ±100 for the full control effect; potency is read from the fitted curve at half-maximal effect.

Potency, inconclusive:
CC(C)(C)c1ccc(C(=O)CSc2n[nH]c(=O)[nH]c2=O)cc1 11.2 µM [activator, single point], COc1cccc(NC(=O)Cn2cnc3sc(C)c(S(=O)(=O)N4CCN(C)CC4)c3c2=O)c1 10 µM [inhibitor, single point], Cc1cc2ncc(-c3ccc(Cl)cc3)c(N)n2n1 35.5 µM [inhibitor, single point], COc1ccc(CCNC(=O)C(=O)NCC2CCCO2)cc1OC (stereo not given) 0.355 µM [activator, full curve, poor fit], CCOc1ccccc1NC(=O)c1cc(CC(C)C)oc1C 10 µM [activator, single point], O=C(Nc1nnc(SCc2ccc(Cl)cc2)s1)C1CC(=O)N(Cc2ccccc2)C1 (stereo not given) 15.8 µM [activator, single point], CCOC(=O)CC(=O)c1cc(OC)c(OC)c(OC)c1 0.0032 µM [activator, full curve, poor fit], CCOc1cccc(-c2cc(C(=O)Nc3ccon3)c3ccccc3n2)c1 31.6 µM [activator, single point], CCCc1ccc(-c2c(C)sc(N)c2C#N)cc1 15.8 µM [inhibitor, single point], Cc1ccc(-n2ncc3c2CC(C)(C)CC3NC(=O)Cc2c(C)noc2C)cc1 (stereo not given) 20 µM [activator, single point], NNC(=O)c1cc2c(s1)CCCCCC2 15.8 µM [inhibitor, single point], Cc1ccc(-c2nn(CC(=O)NCCN3CCOCC3)c(=O)c3ccccc23)cc1 14.1 µM [activator, single point], CC(C)Oc1cccc(C(=O)NC(=S)NCc2cccnc2)c1 35.5 µM [inhibitor, single point], CCC(=O)c1c[nH]c(C(=O)NCC2CCCO2)c1 (stereo not given) 0.398 µM [inhibitor, single point], Cc1ccc(C(=O)N/N=C\c2cccs2)cn1 35.5 µM [inhibitor, single point], C=CCOC(=O)C(=O)/C=C/c1csc2ccccc12 25.1 µM [inhibitor, single point], O=C(/C=C/c1ccco1)Nc1ccccc1C(=O)O 35.5 µM [inhibitor, single point], CC(=O)Nc1ncc(Cc2ccc(Cl)cc2Cl)s1 35.5 µM [inhibitor, single point], Cc1cc(C)cc(NC(=O)CSc2nnc(Cc3cccn3C)n2-c2ccc(F)cc2)c1 15.8 µM [inhibitor, single point], COc1ccc(NC(=S)NC(NC(=O)c2cccc(Cl)c2)C(Cl)(Cl)Cl)c([N+](=O)[O-])c1 (stereo not given) 31.6 µM [inhibitor, single point], S=C(Nc1ccc(Oc2ccccc2)cc1)Nc1cccnc1 35.5 µM [inhibitor, single point], Cc1ccc(-c2noc(-c3ccccc3Br)n2)cc1 31.6 µM [inhibitor, single point], CCc1ccc(OCC(=O)N/N=C(\C)c2ccccc2OC(F)F)cc1 15.8 µM [inhibitor, single point], CCC(C)OC(=O)C1=C(C)NC2=C(C(=O)C(C(=O)OC)C(C)C2)C1c1ccc(N(C)C)cc1 (stereo not given) 6.31 µM [inhibitor, single point], O=C(c1ccccc1Oc1ccccc1)N1CCN(c2ccc(F)cc2)CC1 22.4 µM [activator, partial curve, poor fit]

Potency, active:
CCc1cccc(CC)c1NC(=S)NCc1ccc2[nH]c(C)cc2c1 2.51 µM, S=C(Nc1ccccc1)N1CCC(Cc2ccccc2)CC1 6.31 µM, CCCCCC/C(=N/O)c1ccccn1 5.01 µM, CCN(CC)S(=O)(=O)c1ccc(/C(O)=C(\C#N)c2nc3ccccc3n2C)cc1 2.82 µM, CCOc1ccc(/C=N/NC(=S)Nc2c(C)cccc2C)cc1 1 µM, CCOc1ccc(NC(=S)NCCCN2CCN(c3ccc(OC)cc3)CC2)cc1 5.01 µM, CC(=O)Nc1nnc(-c2c(-c3c(Cl)cccc3Cl)noc2C)o1 10 µM, Cc1nn(-c2ccccn2)c(N)c1N=O 11.2 µM, CN(C)c1ccc(-c2nc3ccccc3n2C)cc1 3.98 µM, CCC(C)(C)C1CCC(=NNC(=O)c2ccc(Br)o2)CC1 (stereo not given) 11.2 µM

Activity change, negative = inhibition, inactive:
Cc1nn(-c2ccccc2)c2c1C(O)n1c(nc3ccccc31)S2 (stereo not given) -13.7%, Cc1oc(-c2ccc(Cl)cc2)nc1CN1CCC(C(=O)N2CCN(Cc3ccccc3)CC2)CC1 -9.27%, CCCC1CC(c2csc(N)n2)CCO1 (stereo not given) -1.88%, O=S(=O)(c1ccc(F)cc1)N1CCN(CCc2ccccc2)CC1 1.05%, Cc1cc(C)cc(CN2CCC(Oc3ccc(C(=O)N4CCCC4)cc3)CC2)c1 -5.99%, COc1ccc(C=O)cc1COc1ccc(F)cc1F 8.92%, COc1cc(C(=O)Nc2scc(-c3ccccc3)c2C(=O)O)cc(OC)c1OC 1.87% [at 1.91 µM], CC(C)C(=O)N1CCN(c2ccccc2NC(=O)c2cccc(Cl)c2)CC1 -21.4%, COC(=O)c1ccc(OC(=O)c2ccccn2)cc1 -1.04%, C/C(=N\NC(=O)CNc1cccc2ccccc12)c1ccc(Br)s1 -40.1%, Oc1cc(-c2ccccc2)c2ccccc2c1 12.7%, O=C(C(Cc1ccccc1)N1C(=O)c2ccccc2C1=O)N1c2ccccc2CCc2ccccc21 (stereo not given) -22.5%, CC(=O)Oc1ccc2ccccc2c1C(NC(=O)C(C)C)c1cccc([N+](=O)[O-])c1 (stereo not given) 3.88%, CC(C)(C)[C@@H]1C=C(C(=O)Nc2ccccc2)O[C@H](OCc2ccc(CO)cc2)C1 -31.8%, O=C(Oc1ccccc1)N1CCC2(CC1)CN(c1ccccn1)C2 31.3%
